From PubChem BioAssay AID540275 (National Center for Advancing Translational Sciences (NCATS), 2011)
Screen size: about 320,000 compounds; about 620 (0.19%) were called active. The inconclusive results got no clear call from the source; some entries with a clear call stand among them for comparison. Cut-off read from the data, not from the text of the source: active = activation above about 80%; inconclusive = between about 30% and that limit; inactive = weaker than that.

Amino acid sequences for entries named in this document (tags omitted).
UniProt Q8NER1, whole entry, looked up: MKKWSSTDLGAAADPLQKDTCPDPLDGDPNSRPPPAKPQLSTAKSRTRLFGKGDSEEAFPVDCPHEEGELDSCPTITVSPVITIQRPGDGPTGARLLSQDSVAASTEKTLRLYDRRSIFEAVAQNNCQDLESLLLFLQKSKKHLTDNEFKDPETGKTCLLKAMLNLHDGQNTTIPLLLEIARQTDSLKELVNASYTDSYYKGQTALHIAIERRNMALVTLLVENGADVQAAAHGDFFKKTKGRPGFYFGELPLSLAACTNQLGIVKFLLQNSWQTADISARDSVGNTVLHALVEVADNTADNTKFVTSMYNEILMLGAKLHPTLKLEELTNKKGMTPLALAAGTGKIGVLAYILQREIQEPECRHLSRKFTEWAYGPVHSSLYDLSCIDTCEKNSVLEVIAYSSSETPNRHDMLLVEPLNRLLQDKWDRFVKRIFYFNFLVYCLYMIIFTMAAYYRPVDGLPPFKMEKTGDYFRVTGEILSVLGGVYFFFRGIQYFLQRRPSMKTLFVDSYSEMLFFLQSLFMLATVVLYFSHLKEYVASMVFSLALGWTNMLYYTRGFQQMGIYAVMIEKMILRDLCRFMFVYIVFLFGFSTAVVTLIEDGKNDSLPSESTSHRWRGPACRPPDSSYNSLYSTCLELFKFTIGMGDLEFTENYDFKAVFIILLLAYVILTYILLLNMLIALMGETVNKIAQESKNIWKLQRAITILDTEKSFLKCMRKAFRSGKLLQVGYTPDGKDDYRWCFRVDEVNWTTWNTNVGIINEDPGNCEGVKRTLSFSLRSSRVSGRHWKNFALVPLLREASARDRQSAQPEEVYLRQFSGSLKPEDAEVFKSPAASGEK

biological target: Transient receptor potential cation channel subfamily V member 1 (Homo sapiens) (UniProt Q8NER1); assay: HTS Assay for Compounds that Act as Agonists of the Vanilloid Receptor 1; conditions: TRPV1-expressing cells, Fluo-8 calcium influx, agonist mode; at 8.33 µM, active compounds read high; note: 0% is about no effect
Summary of the method: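 Fluo-8 calcium influx in TRPV1-expressing cells, kinetic read (ex 480/em 520 nm). Compound added and read 3 min for agonist activity, followed by capsaicin at EC20 final and 2 min further read for enhancement.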

SMILES	activation
COc1ccccc1C(=O)Nc1ccc(N2CCCCC2)cc1	inconclusive: 64.4%
COc1ccc(NC(=S)N/N=C2\CC(C)(C)Oc3ccc(O)cc32)cc1	inactive: -5.61%
O=C(NCCc1ccc(F)cc1)Nc1ccc([N+](=O)[O-])cc1	inconclusive: 47.3%
CC(C)(C)c1csc(Sc2ncccc2[N+](=O)[O-])n1	inconclusive: 44.5%
COc1cc2c(cc1OC)C(C(=O)Nc1ccccn1)C(c1cccnc1)N(C)C2=O (configuration not stated)	inactive: -2.14%
Cc1ccc(C(=O)Nc2ccc(S(=O)(=O)N3CCCC3)cc2)cc1	active: 84.6%
CCS(=O)(=O)N1CCN(C(=O)c2ccc(-c3ccccc3)cc2)CC1	inconclusive: 37.8%
COc1ccc(CSc2nc(N3CCOCC3)c3c(c2C#N)CC(C)(C)OC3)cc1	active: 80.5%
COc1cccc(CN(C)C(=O)[C@@H](NC(=O)c2ccc(C)cc2)C(C)C)c1	inconclusive: 47.1%
COc1cccc(-c2nnc3sc(-c4cccs4)nn23)c1	inconclusive: 35.8%
O=S(=O)(c1cc(Cl)ccc1Cl)N1CCN(Cc2ccc3c(c2)OCO3)CC1	inconclusive: 42.3%
Cc1sc2ncnc(N/N=C/c3ccccc3O)c2c1C	inconclusive: 35.6%
CC(=O)CCC1C2C(O)C(C(C)C)C(OC(=O)/C=C/c3ccccc3)CC12C (configuration not stated)	inconclusive: 49.9%
COC(=O)c1ccc2nc(-c3ccc(S(C)(=O)=O)cc3)cn2c1	inactive: -5.37%
CC(=O)NNC(=O)c1[nH]c2ccc(Cl)cc2c1-c1ccccc1	inactive: 16.1%
CC(C)Oc1cccc(C(=O)C2CCCN(Cc3ccc4nonc4c3)C2)c1 (configuration not stated)	inconclusive: 47%
Cc1oc(-c2ccccc2)cc1C(=O)NCc1ccncc1	inconclusive: 78.5%
O=C(N/N=C/c1ccccc1O)C(=O)Nc1ccccn1	inconclusive: 60.5%
Cc1cccc(N2CCN(S(=O)(=O)c3ccc4c(c3)NC(=O)CS4)CC2)c1C	inconclusive: 32.2%

Five structures already listed, ordered by SMILES length, low to high.
SMILES	activation
CC(=O)NNC(=O)c1[nH]c2ccc(Cl)cc2c1-c1ccccc1	inactive: 16.1%
Cc1ccc(C(=O)Nc2ccc(S(=O)(=O)N3CCCC3)cc2)cc1	active: 84.6%
COc1ccc(NC(=S)N/N=C2\CC(C)(C)Oc3ccc(O)cc32)cc1	inactive: -5.61%
COc1ccc(CSc2nc(N3CCOCC3)c3c(c2C#N)CC(C)(C)OC3)cc1	active: 80.5%
COc1cc2c(cc1OC)C(C(=O)Nc1ccccn1)C(c1cccnc1)N(C)C2=O (configuration not stated)	inactive: -2.14%

The list continues.

SMILES	activation
Cc1cc(NC(=O)CSCC(=O)N(C)Cc2ccc(Cl)c(Cl)c2)no1	inconclusive: 32%
COC(=O)/C(=C\Nc1ccc(Cl)cc1Cl)NC(=O)c1ccccc1	inconclusive: 40.6%
O=C(/C=C/c1ccccc1)NC1CCCc2ccccc21 (configuration not stated)	inconclusive: 31.3%
COc1ccc(CC(=O)Nc2cccc(S(=O)(=O)N3CCCC3)c2)cc1OC	inconclusive: 52.3%
COc1ccc(N2CCN(CC(O)COC(c3ccccc3)c3ccccc3)CC2)cc1 (configuration not stated)	inactive: 1.26%
O=C(N/N=C/c1ccc2c(c1)OCO2)c1ccc(NC(=O)c2ccc(F)cc2)cc1	inactive: -0.509%
Cc1ccc(SCC(=O)OCC(=O)NC(C)c2ccc(Br)cc2)cc1 (configuration not stated)	inconclusive: 32.5%
CC(Sc1nc2ccccc2c(=O)n1CC1CCCO1)C(=O)N(C)c1ccccc1 (configuration not stated)	inconclusive: 31.1%
O=C(CCC1CCCC1)Nc1cccc(Cc2ccncc2)c1	inconclusive: 70.5%
Cc1cc(N2CCN(C(=O)c3cccs3)CC2)c(F)cc1[N+](=O)[O-]	inconclusive: 63.5%
COc1ccc(-c2ccc(C(C)=O)cc2)cc1[C@H]1[C@H]2C=CC[C@@H](C)[C@@H]2C(=O)N1Cc1ccccc1	inconclusive: 43.1%
Cc1cccc(N2CCN(CC(=O)NCc3ccc(Cl)cc3)CC2)c1C	active: 83%
CC1Cc2cc(S(=O)(=O)N3CCCCC3C)ccc2N1C(=O)C1CCC1 (configuration not stated)	inconclusive: 32.2%
O=C(CC1CC2CCC1C2)Nc1nc(-c2ccccn2)cs1 (configuration not stated)	inconclusive: 66.9%
CC(C)c1ccc(NC(=O)COC(=O)[C@H](CCC(N)=O)NC(=O)c2ccc(F)cc2)cc1	inconclusive: 39.6%
Cc1ccc(-c2nc(P(=O)(c3ccccc3)c3ccccc3)c(N3CCOCC3)o2)cc1	inconclusive: 60.5%
CC(C)(C)c1cn(-c2ccccc2)c(=S)[nH]1	inactive: -1.06%
NS(=O)(=O)c1ccc(NC(=O)/C=C/c2ccccc2Cl)cc1	inconclusive: 57.8%
CC(NC(=O)CCCOc1ccc(Cl)cc1)c1ccccc1 (configuration not stated)	inconclusive: 46.1%

SMILES	activation
CC1CCc2c(sc(NC(=O)c3cccs3)c2C(=O)O)C1 (configuration not stated)	inconclusive: 45%
COc1cc(/C=C(\C#N)c2nc3ccccc3[nH]2)cc(Br)c1OCc1ccc(F)cc1	inconclusive: 31.3%
COc1ccc(-n2c(NC(=O)c3ccc(Br)o3)c(C#N)c3nc4ccccc4nc32)cc1	inactive: 12.5%
CC(=O)OC1CC(c2cc(C(C)(C)C)c(O)c(C(C)(C)C)c2)=NO1 (configuration not stated)	inconclusive: 42.1%
CC(=O)c1ccc(NC(=O)C2CCCN(C(=O)c3ccc(Cl)cc3)C2)cc1 (configuration not stated)	inconclusive: 60.1%
CCOc1ccc(-c2nc(C#N)c(NC3CC3)o2)cc1	inactive: 22.4%
CCCCCc1nnc(NC(=O)c2cccc(S(=O)(=O)N3CCOCC3)c2)s1	inconclusive: 60.5%
O=C(N/N=C(\c1ccccc1)c1ccccn1)c1ccccc1Cl	inconclusive: 46.9%
O=C(CC1CCCCC1)NCc1ccc(Cl)cc1	inconclusive: 59.7%
Cc1ccc(C(=O)Nc2sc3c(c2C(=O)O)CCCCC3)o1	inactive: 2.91%
CCOC(=O)Nc1nc(C)c(C(=O)c2ccc(Cl)cc2)s1	inconclusive: 32.2%
Cc1ccc(NC(=O)CN2CCC(C(=O)c3ccc4c(c3)OCCO4)CC2)cc1	inconclusive: 36.6%
COc1cc(/C=N/n2c(-c3ccccc3)n[nH]c2=S)cc(OC)c1O	inactive: 2.45%
Cc1ccc(NC(CC(=O)c2ccccc2)C(=O)O)cc1Cl (configuration not stated)	inconclusive: 30.1%
Cc1cc(Oc2ccccc2)nc(-c2ccccc2)n1	inactive: 1.02%
CCOC(=O)N1CCC(NC(=O)CCCC(=O)O)CC1	inactive: -2.27%
O=S(=O)(NCC1CCCO1)c1ccc(Oc2ccccc2)cc1 (configuration not stated)	inconclusive: 32.5%
O=C(/C=C/c1ccccc1)Nc1ccc2c(c1)C(=O)NC2=O	inconclusive: 68.8%
O=C(c1cc(-c2ccc(Cl)c(Cl)c2)on1)N1CCOCC1	active: 80.4%
